Data published in the supplement of paper PMC7666118.
The other results are listed elsewhere or left out.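 How the source made its calls: active = dose-dependent thermal stabilisation significant by F-test of dose-response against flat model at 10% FDR; inactive = not significant.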

Chains of the proteins cited; added tags and fusions are not shown. Lines headed by an entry give the natural chain unless they say otherwise; changes in a name come on top.
UniProt Q147X3: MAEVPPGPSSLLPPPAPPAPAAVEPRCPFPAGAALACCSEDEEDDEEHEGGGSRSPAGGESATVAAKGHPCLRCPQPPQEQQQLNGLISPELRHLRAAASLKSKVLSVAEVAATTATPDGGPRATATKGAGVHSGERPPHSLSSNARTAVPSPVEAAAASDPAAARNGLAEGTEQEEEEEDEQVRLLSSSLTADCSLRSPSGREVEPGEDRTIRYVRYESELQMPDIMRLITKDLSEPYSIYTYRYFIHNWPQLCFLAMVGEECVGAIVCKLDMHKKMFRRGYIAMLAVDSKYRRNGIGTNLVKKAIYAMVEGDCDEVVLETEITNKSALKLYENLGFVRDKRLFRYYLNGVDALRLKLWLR
UniProt Q8NCW5: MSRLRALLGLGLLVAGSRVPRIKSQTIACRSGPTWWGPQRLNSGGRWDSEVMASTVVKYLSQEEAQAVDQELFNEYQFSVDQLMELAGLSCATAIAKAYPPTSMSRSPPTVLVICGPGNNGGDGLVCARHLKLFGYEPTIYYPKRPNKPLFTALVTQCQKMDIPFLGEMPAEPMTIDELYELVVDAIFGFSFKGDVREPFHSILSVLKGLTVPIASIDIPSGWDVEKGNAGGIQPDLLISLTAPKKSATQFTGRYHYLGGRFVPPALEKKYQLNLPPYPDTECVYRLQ
UniProt P61916: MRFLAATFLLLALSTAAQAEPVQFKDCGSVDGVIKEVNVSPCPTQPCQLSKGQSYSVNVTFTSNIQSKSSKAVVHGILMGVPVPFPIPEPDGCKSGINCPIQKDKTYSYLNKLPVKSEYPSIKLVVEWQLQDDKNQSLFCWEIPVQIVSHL
UniProt Q9Y697: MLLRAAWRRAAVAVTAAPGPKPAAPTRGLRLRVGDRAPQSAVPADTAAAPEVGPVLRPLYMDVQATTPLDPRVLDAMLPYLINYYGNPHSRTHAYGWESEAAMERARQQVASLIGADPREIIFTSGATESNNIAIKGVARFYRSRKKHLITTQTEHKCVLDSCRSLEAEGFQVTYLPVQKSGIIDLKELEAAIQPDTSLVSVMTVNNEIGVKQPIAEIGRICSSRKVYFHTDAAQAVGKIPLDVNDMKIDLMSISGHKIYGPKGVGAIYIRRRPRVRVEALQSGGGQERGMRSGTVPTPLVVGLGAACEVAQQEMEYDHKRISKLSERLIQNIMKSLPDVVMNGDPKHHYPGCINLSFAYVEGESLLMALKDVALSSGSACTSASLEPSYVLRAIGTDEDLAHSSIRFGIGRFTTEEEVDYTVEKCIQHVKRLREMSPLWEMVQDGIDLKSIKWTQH
UniProt Q13952: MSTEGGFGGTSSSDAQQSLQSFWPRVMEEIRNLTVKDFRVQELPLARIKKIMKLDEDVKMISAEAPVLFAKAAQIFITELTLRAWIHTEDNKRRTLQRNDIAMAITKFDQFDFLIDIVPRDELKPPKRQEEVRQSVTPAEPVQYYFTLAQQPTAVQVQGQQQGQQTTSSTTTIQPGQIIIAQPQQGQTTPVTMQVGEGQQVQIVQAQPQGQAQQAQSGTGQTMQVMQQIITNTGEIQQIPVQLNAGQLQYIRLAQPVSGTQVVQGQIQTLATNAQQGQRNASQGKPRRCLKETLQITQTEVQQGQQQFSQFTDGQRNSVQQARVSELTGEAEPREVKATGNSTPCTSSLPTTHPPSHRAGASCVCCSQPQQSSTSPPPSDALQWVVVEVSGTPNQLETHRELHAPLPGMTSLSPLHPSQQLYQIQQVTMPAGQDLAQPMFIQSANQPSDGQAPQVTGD
UniProt Q8IVD9: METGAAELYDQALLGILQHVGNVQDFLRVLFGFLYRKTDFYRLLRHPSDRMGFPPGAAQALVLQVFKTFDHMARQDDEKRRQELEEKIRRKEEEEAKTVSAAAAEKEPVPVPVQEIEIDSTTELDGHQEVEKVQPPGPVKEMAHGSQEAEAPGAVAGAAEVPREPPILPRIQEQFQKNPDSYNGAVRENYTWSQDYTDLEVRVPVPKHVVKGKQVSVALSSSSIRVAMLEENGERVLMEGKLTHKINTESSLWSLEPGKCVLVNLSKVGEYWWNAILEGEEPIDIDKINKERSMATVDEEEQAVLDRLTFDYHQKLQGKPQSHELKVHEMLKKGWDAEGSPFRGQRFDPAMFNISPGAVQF
UniProt Q9HBI0: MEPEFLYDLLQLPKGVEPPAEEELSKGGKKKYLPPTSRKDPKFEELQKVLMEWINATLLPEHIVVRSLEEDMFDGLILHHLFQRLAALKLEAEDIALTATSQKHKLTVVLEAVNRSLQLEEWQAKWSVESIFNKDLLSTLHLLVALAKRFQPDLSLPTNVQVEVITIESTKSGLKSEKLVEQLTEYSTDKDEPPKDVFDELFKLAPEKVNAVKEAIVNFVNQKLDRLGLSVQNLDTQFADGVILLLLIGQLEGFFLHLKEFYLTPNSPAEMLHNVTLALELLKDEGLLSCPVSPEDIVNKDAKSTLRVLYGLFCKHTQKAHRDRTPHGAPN
UniProt Q8TCD5: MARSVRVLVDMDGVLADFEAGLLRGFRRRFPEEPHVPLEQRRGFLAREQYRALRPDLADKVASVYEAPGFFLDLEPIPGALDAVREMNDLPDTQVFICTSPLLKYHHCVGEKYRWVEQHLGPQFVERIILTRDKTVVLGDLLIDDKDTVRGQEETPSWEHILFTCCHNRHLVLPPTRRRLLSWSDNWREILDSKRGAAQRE
UniProt Q6GQQ9: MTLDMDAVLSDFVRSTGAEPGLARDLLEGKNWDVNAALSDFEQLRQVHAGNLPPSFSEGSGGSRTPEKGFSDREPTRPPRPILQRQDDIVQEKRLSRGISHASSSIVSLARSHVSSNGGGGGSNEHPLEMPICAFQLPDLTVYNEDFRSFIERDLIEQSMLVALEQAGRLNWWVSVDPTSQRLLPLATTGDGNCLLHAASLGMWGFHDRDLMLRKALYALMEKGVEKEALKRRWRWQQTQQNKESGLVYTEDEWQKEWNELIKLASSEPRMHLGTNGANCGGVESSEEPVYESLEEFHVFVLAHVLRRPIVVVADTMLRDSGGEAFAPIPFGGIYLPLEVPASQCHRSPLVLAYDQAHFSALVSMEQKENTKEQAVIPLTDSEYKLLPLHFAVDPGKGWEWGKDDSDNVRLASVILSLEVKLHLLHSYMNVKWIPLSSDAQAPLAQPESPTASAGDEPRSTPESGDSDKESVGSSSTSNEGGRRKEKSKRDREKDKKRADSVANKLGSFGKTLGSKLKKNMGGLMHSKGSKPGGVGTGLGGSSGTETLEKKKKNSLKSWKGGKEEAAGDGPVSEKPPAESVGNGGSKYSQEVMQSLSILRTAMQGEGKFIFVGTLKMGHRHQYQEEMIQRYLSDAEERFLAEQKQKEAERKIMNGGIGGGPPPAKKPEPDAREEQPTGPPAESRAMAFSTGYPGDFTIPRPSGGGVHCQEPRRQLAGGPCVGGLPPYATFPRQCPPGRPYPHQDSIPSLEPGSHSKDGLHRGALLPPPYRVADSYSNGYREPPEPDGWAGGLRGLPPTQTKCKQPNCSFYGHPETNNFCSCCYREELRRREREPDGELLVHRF
UniProt Q9BXJ9: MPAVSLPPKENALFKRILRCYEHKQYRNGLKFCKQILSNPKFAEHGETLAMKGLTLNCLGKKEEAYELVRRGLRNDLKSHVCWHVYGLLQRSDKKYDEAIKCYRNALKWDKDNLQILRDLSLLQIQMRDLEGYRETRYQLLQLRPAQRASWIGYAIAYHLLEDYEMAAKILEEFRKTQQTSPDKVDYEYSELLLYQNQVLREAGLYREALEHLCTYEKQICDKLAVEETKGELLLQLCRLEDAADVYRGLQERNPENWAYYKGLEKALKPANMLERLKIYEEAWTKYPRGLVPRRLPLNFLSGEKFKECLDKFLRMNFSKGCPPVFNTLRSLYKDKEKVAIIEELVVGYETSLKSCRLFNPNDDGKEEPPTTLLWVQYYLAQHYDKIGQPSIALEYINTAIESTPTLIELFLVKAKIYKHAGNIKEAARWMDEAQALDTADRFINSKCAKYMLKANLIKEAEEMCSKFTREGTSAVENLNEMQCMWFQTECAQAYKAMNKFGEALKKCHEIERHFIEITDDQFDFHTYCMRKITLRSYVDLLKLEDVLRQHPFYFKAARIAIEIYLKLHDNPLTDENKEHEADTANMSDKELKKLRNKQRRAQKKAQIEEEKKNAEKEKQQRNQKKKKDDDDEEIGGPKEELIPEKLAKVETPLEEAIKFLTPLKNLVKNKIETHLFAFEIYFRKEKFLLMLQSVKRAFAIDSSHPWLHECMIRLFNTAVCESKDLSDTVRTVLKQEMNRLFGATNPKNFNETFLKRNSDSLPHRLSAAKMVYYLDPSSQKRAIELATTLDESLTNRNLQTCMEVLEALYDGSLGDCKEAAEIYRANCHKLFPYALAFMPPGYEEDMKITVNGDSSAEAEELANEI
UniProt O94916: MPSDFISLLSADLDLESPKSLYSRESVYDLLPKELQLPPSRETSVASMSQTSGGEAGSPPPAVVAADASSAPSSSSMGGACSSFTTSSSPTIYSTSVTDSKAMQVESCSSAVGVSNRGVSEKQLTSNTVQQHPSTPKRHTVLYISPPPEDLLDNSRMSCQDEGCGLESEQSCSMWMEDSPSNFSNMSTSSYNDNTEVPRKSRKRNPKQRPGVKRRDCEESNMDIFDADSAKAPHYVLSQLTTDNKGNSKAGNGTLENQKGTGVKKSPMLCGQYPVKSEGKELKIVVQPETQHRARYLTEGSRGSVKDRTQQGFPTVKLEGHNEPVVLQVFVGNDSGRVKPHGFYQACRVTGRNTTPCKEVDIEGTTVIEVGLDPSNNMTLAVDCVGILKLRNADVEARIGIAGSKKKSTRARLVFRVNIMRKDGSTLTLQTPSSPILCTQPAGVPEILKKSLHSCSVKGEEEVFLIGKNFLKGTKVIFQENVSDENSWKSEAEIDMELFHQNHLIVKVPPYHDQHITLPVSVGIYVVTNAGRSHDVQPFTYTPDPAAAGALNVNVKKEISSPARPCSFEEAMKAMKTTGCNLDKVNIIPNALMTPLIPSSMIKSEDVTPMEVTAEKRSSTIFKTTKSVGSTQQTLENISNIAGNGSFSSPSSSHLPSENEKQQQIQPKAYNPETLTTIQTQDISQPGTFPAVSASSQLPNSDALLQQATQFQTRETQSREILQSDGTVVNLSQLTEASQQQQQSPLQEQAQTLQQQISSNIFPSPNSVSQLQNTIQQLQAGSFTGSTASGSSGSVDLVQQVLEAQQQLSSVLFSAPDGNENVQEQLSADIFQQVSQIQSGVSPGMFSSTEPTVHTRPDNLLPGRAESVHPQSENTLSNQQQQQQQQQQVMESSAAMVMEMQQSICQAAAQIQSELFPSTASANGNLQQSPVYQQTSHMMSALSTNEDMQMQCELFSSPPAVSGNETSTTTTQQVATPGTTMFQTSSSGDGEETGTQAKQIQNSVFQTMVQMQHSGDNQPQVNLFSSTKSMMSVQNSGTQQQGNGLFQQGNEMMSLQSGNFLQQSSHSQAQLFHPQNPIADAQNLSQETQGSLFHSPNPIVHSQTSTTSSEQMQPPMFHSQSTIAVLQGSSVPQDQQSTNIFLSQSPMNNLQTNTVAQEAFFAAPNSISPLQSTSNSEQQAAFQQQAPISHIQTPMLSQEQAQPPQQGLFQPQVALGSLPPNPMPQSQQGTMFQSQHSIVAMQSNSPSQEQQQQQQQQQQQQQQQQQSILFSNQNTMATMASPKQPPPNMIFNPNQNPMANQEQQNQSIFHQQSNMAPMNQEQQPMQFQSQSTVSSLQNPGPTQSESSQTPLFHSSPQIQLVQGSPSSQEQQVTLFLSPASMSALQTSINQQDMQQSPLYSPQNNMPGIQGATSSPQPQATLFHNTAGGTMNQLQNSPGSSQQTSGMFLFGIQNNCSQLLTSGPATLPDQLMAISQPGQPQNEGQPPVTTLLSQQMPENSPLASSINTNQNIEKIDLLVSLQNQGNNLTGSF
UniProt Q32P28: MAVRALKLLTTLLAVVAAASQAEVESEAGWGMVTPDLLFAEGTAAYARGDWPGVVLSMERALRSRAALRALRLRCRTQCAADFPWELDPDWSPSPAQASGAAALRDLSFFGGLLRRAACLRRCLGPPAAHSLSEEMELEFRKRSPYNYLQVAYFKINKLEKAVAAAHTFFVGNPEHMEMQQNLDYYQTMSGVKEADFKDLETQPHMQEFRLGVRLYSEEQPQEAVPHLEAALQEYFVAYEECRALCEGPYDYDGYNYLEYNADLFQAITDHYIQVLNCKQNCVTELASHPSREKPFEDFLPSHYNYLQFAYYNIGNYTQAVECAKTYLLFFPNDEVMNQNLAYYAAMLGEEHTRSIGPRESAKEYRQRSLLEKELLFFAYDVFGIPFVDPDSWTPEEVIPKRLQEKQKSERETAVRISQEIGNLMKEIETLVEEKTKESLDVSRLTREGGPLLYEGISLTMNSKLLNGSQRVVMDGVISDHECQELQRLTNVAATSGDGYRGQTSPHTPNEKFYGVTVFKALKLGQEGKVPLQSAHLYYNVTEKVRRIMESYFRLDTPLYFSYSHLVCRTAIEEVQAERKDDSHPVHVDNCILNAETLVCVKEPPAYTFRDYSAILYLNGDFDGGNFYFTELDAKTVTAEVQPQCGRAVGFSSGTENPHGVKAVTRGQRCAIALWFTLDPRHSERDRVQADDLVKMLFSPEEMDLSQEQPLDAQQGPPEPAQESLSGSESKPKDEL

What follows are targets tested with Nc1nc2c(ncn2[C@@H]2O[C@H](COP(=O)(O)OP(=O)(O)OP(=O)(O)O)[C@@H](O)[C@H]2O)c(=O)[nH]1 (assay: dose-dependent thermal stabilisation call (2D-TPP, DLPTP, 10% FDR) (binary (1 = stabilised)); higher = stabilised by the compound). Details: system: Jurkat gel-filtered lysate; concentration range 1-500 µM.
Procedure: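 2D thermal proteome profiling in gel-filtered Jurkat E6.1 lysate (2 mg/ml) treated with NaGTP (0, 1, 10, 100, 500 uM) for 10 min at room temperature, then heated 3 min at one of 12 temperatures (42-63.9 C). Soluble protein was quantified by TMT10 MS. The value is the DLPTP call of the paper: dose-dependent thermal stabilisation over all temperatures at 10% FDR (F-test of a dose-response against a flat model); one experiment, one call per tested protein.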
In the case of PANK4 (UniProt Q9NVE7), the “dose-dependent thermal stabilisation call” value is reported as active: 1. In the case of NAA30 (UniProt Q147X3), the “dose-dependent thermal stabilisation call” value is reported as active: 1. With NDRG1 (UniProt Q92597) the “dose-dependent thermal stabilisation call” value was inactive: 0. With OSBPL11 (UniProt Q9BXB4) the “dose-dependent thermal stabilisation call” value was inactive: 0. With NUMA1 (UniProt Q14980) the “dose-dependent thermal stabilisation call” value was inactive: 0. NR2C2 (UniProt P49116) was tested, and the “dose-dependent thermal stabilisation call” value was inactive: 0. With NANP (UniProt Q8TBE9) the “dose-dependent thermal stabilisation call” value was inactive: 0. NAXE (UniProt Q8NCW5) was tested, and the “dose-dependent thermal stabilisation call” value was inactive: 0. For NMT1 (UniProt P30419), the “dose-dependent thermal stabilisation call” value was inactive: 0. With NUDT1 (UniProt P36639) the “dose-dependent thermal stabilisation call” value was inactive: 0. For NPC2 (UniProt P61916), the “dose-dependent thermal stabilisation call” value was inactive: 0. For NSUN6 (UniProt Q8TEA1), the “dose-dependent thermal stabilisation call” value was active: 1. NUDT4 (UniProt Q9NZJ9) was tested, and the “dose-dependent thermal stabilisation call” value was inactive: 0. In the case of NFS1 (UniProt Q9Y697), the “dose-dependent thermal stabilisation call” value is reported as inactive: 0. In the case of NKIRAS2 (UniProt Q9NYR9), the “dose-dependent thermal stabilisation call” value is reported as active: 1. NFYC (UniProt Q13952) was tested, and the “dose-dependent thermal stabilisation call” value was inactive: 0. With NUDCD3 (UniProt Q8IVD9) the “dose-dependent thermal stabilisation call” value was inactive: 0. For PARVG (UniProt Q9HBI0), the “dose-dependent thermal stabilisation call” value was active: 1. In the case of NMT2 (UniProt O60551), the “dose-dependent thermal stabilisation call” value is reported as inactive: 0. NT5C (UniProt Q8TCD5) was tested, and the “dose-dependent thermal stabilisation call” value was inactive: 0. With OTUD7B (UniProt Q6GQQ9) the “dose-dependent thermal stabilisation call” value was inactive: 0. With NAE1 (UniProt Q13564) the “dose-dependent thermal stabilisation call” value was inactive: 0. For OSBP (UniProt P22059), the “dose-dependent thermal stabilisation call” value was active: 1. In the case of NAA15 (UniProt Q9BXJ9), the “dose-dependent thermal stabilisation call” value is reported as inactive: 0. In the case of NDEL1 (UniProt Q9GZM8), the “dose-dependent thermal stabilisation call” value is reported as inactive: 0. For NAA10 (UniProt P41227), the “dose-dependent thermal stabilisation call” value was inactive: 0. In the case of NUP153 (UniProt P49790), the “dose-dependent thermal stabilisation call” value is reported as inactive: 0. In the case of PATL1 (UniProt Q86TB9), the “dose-dependent thermal stabilisation call” value is reported as active: 1. With NOL4L (UniProt Q96MY1) the “dose-dependent thermal stabilisation call” value was inactive: 0. For NCOA7 (UniProt Q8NI08), the “dose-dependent thermal stabilisation call” value was inactive: 0. In the case of NFAT5 (UniProt O94916), the “dose-dependent thermal stabilisation call” value is reported as inactive: 0. NHLRC2 (UniProt Q8NBF2) was tested, and the “dose-dependent thermal stabilisation call” value was active: 1. P3H1 (UniProt Q32P28) was tested, and the “dose-dependent thermal stabilisation call” value was active: 1. For NCOR1 (UniProt O75376), the “dose-dependent thermal stabilisation call” value was inactive: 0. With NIPSNAP1 (UniProt Q9BPW8) the “dose-dependent thermal stabilisation call” value was active: 1. In the case of NUDT3 (UniProt O95989), the “dose-dependent thermal stabilisation call” value is reported as inactive: 0. With NOLC1 (UniProt Q14978) the “dose-dependent thermal stabilisation call” value was inactive: 0. In the case of P4HA1 (UniProt P13674), the “dose-dependent thermal stabilisation call” value is reported as inactive: 0. In the case of OSGEP (UniProt Q9NPF4), the “dose-dependent thermal stabilisation call” value is reported as active: 1. For NUCB1 (UniProt Q02818), the “dose-dependent thermal stabilisation call” value was inactive: 0.
